System: Pyridostigmine Antibody
Assay: Sensitivity and useful range of the pyridostigmine RIA (standard curve)
Set-up: species or system rabbit (male New Zealand white)

CN(C)C(=O)Oc1ccc[n+](C)c1 [Pyridostigmine]
upper end of useful range of the standard curve: up to 10 ng per assay tube | lowest detectable quantity of pyridostigmine (biological/body fluid): 250 pg per 0.1 ml

Reference: patent US5268308A (priority 1989, dated 1993)
